Square brackets hold non-standard residues; d marks the D form. Ends that are not written are not given here. * marks the point of attachment. His(Trt) = N[C@@H](Cc1cn(C(c2ccccc2)(c2ccccc2)c2ccccc2)cn1)C(=O)O; Fmoc = O=C(OCC1c2ccccc2-c2ccccc21)*; Mtr = COc1cc(C)c(S(=O)(=O)*)c(C)c1C; Boc = CC(C)(C)OC(=O)*

One substance from patent US5827825 (dated 1998) can be followed below.

This series in a line: Fmoc solid-phase peptide synthesis; Sasrin resin; symmetric anhydride method; N,N-dicyclohexylcarbodiimide/hydroxybenzotriazole fo. Conditions: whole synthesis, scale 0.20 mmol.

In turn, Fmoc-PV[His(Trt)]LK(Boc)R(Mtr) returned a crude mass of 180 mg.
